Measurements taken from publication PMC12043515, “Stepwise neofunctionalization of the NF-κB family member Rel during vertebrate evolution”.

Chains of the proteins cited; added tags and fusions are not shown. Residues count along the entry.
UniProt A0ACM8Q4Y4, entry or part of it: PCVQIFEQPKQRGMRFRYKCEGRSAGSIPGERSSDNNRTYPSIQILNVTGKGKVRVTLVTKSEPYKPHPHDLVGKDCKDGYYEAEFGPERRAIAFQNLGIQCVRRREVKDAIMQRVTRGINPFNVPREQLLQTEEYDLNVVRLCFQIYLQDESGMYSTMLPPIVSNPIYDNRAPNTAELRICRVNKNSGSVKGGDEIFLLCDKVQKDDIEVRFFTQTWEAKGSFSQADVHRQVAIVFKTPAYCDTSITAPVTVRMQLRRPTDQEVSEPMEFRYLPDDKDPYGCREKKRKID
UniProt Q04206, 19-306: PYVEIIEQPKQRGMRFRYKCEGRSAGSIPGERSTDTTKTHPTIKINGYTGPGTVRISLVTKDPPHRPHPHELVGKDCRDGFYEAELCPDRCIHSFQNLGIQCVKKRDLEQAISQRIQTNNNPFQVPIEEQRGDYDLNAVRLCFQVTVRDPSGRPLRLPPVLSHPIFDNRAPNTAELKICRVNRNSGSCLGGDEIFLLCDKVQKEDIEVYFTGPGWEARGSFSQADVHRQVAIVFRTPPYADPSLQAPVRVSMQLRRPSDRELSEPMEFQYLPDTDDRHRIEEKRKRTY
UniProt Q04207, 19-306: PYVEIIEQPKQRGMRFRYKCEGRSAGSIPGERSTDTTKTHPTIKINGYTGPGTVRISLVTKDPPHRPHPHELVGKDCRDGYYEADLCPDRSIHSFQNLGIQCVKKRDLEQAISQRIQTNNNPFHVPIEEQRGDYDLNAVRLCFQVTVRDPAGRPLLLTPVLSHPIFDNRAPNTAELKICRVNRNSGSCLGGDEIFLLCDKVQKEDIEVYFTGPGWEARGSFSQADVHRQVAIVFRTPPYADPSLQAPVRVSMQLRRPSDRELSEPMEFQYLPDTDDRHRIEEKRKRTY

Legend:
[1] = molecular target: Rel RHR homodimer (UniProt P15307); test: EMSA; details: EMSA: 10 mM Tris-HCl pH 7.5, 150 mM NaCl, 1 mM DTT, 1 mM EDTA, 5% glycerol, 80 ng/ul dI-dC, 200 ng/ul BSA, 4 C, off-rate with 100-fold unlabeled consensus, recombinant protein, label: 32P
[2] = molecular target: Rel RHR zebrafish (zebrafish) (UniProt A0ACM8Q4Y4); test: EMSA off-rate; details: comparable to RelA; EMSA: 10 mM Tris-HCl pH 7.5, 150 mM NaCl, 1 mM DTT, 1 mM EDTA, 5% glycerol, 80 ng/ul dI-dC, 200 ng/ul BSA, 4 C; off-rate with 100-fold unlabeled consensus; protein in a lysate after overexpression; protein details: N-terminal Flag; label: 32P
[3] = molecular target: T1, Rel RHR human (Homo sapiens) (UniProt Q04864); test: EMSA off-rate; details: EMSA: 10 mM Tris-HCl pH 7.5, 150 mM NaCl, 1 mM DTT, 1 mM EDTA, 5% glycerol, 80 ng/ul dI-dC, 200 ng/ul BSA, 4 C, off-rate with 100-fold unlabeled consensus, protein in a lysate after overexpression, protein details: N-terminal Flag, label: 32P
T1 sequence (looked up, limits assumed): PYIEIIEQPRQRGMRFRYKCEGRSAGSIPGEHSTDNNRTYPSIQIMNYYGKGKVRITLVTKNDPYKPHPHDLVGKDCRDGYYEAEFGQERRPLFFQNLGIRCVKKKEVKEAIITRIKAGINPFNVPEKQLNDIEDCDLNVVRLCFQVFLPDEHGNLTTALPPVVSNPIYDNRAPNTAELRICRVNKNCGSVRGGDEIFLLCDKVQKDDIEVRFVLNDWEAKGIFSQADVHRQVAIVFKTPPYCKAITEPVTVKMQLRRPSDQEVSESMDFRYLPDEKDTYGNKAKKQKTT

[4] = molecular target: RelA RHR human (Homo sapiens) (UniProt Q04206); test: EMSA off-rate; details: faster than Rel; EMSA: 10 mM Tris-HCl pH 7.5, 150 mM NaCl, 1 mM DTT, 1 mM EDTA, 5% glycerol, 80 ng/ul dI-dC, 200 ng/ul BSA, 4 C; off-rate with 100-fold unlabeled consensus; protein in a lysate after overexpression; protein details: N-terminal Flag; label: 32P
[5] = molecular target: RelA RHR mouse (mouse) (UniProt Q04207); test: EMSA off-rate; details: faster than Rel; EMSA: 10 mM Tris-HCl pH 7.5, 150 mM NaCl, 1 mM DTT, 1 mM EDTA, 5% glycerol, 80 ng/ul dI-dC, 200 ng/ul BSA, 4 C; off-rate with 100-fold unlabeled consensus; protein in a lysate after overexpression; protein details: N-terminal Flag; label: 32P
[6] = molecular target: Rel RHR R101Q R108Q (UniProt P15307); test: EMSA off-rate; details: faster off-rate than WT; EMSA: 10 mM Tris-HCl pH 7.5, 150 mM NaCl, 1 mM DTT, 1 mM EDTA, 5% glycerol, 80 ng/ul dI-dC, 200 ng/ul BSA, 4 C; off-rate with 100-fold unlabeled consensus; protein in a lysate after overexpression; label: 32P
[7] = molecular target: T2, RelA RHR zebrafish (zebrafish) (UniProt A0A8M2BI19); test: EMSA off-rate; details: comparable to Rel; EMSA: 10 mM Tris-HCl pH 7.5, 150 mM NaCl, 1 mM DTT, 1 mM EDTA, 5% glycerol, 80 ng/ul dI-dC, 200 ng/ul BSA, 4 C; off-rate with 100-fold unlabeled consensus; protein in a lysate after overexpression; protein details: N-terminal Flag; label: 32P
T2 sequence (looked up, limits assumed): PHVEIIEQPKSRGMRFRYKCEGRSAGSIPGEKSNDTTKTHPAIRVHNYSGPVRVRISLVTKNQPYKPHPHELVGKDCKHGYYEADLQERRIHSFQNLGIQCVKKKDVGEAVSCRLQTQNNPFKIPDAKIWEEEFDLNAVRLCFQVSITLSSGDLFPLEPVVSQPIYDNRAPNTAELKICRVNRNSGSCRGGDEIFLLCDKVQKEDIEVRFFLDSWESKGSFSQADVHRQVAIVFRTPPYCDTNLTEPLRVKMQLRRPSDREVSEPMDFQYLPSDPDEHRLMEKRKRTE

[8] = molecular target: Rel RHR R101A R108A (UniProt P15307); test: EMSA off-rate; details: difficult to detect, low affinity; EMSA: 10 mM Tris-HCl pH 7.5, 150 mM NaCl, 1 mM DTT, 1 mM EDTA, 5% glycerol, 80 ng/ul dI-dC, 200 ng/ul BSA, 4 C; off-rate with 100-fold unlabeled consensus; protein in a lysate after overexpression; label: 32P
[9] = molecular target: Rel RHR mouse (mouse) (UniProt P15307); test: EMSA off-rate; details: EMSA: 10 mM Tris-HCl pH 7.5, 150 mM NaCl, 1 mM DTT, 1 mM EDTA, 5% glycerol, 80 ng/ul dI-dC, 200 ng/ul BSA, 4 C, off-rate with 100-fold unlabeled consensus, protein in a lysate after overexpression, protein details: N-terminal Flag, label: 32P
[10] = molecular target: RelA RHR homodimer (UniProt Q04207); test: SPR; details: much weaker than Rel; SPR: 10 mM HEPES pH 7.5, 150 mM NaCl, 3 mM EDTA, 0.005% Tween 20, 10 C; recombinant protein; label: biotin
[11] = molecular target: Rel RHR homodimer (UniProt P15307); test: SPR; details: faster off-rate than on GGGGGTTTTT; SPR: 10 mM HEPES pH 7.5, 150 mM NaCl, 3 mM EDTA, 0.005% Tween 20, 10 C; recombinant protein; label: biotin
[12] = system: RelA(C46) RHR chimera homodimer (mouse); test: SPR; details: half-life moderately below Rel, above RelA; SPR: 10 mM HEPES pH 7.5, 150 mM NaCl, 3 mM EDTA, 0.005% Tween 20, 10 C; recombinant protein; label: biotin
[13] = slowest-mobility (three-dimer) band lost

ACCAACTTCTTAAAATTCCCCCAGAATGTTTTGACA (double strand) [κB1m+2+3]
binding result [1, 13]: binds more weakly

AGGAACTTCTTAAAATTAAACCAGAATGTTTTGACA (double strand) [κB1+2m+3]
binding result [1, 13]: binds more weakly

AGGAACTTCTTAAAATTCCCCCAGAATGAAATGACA (double strand) [κB1+2+3m]
binding result [1, 13]: binds more weakly

CCTAACATCAAAAATTCCCCGATGTTAGG (double strand) [κB2 EMSA probe]
binding result [2]: binds | binding result ([3]; faster off-rate than consensus): binds | binding result [4]: binds more weakly | binding result [5]: binds more weakly | binding result [6]: binds more weakly | binding result [7]: binds | binding result [8]: binds more weakly | binding result ([9]; faster off-rate than consensus): binds

CCTAACATCAAGAATGAAATTGATGTTAGG (double strand) [κB3m EMSA probe]
binding result ([1]; GTTTT half-site critical for binding): binds more weakly

CCTAACATCACACTAGTTTTTGATGTTAGG (double strand) [κB4 EMSA probe]
binding result ([1]; very weak, barely detectable): binds more weakly

CCTAACATCAGGGGGGAGATTGATGTTAGG (double strand) [SPR GGGGGGAGAT]
binding result [10]: binds more weakly | binding result [11]: binds more weakly

CCTAACATCAGGGGGTTTTTTGATGTTAGG (double strand) [SPR GGGGGTTTTT]
binding result [12]: binds | binding result [10]: binds more weakly

TGGGGGTTTAAAGAAATTCCAGAGAGTCATCAG (double strand) [CD28 RE]
binding result [2]: binds | binding result [3]: binds | binding result [4]: binds more weakly | binding result [5]: binds more weakly | binding result [7]: binds | binding result [9]: binds

Construct, isoform or probe ends are uncertain for at least one entry. For some assays here: The comparison behind a weaker result is the experiment's own reference, which may not be listed here. For some assays here: Results from cells or extracts need not show a direct contact. For some assays here: At least one verdict rests on a figure or table, not on a statement of the authors. For some assays here: Tags and fusion partners may be left off the protein sequences shown.
